Where a chain is given by its changes, count along the chain named. In names and notes the source's numbering stands. No constants are given. Whether binding was seen depends on the method and setting. Some binding calls cover weakened binding; strength is not graded here. For part of these data: Where a sequence is shown, tags or fusion partners need not be part of it.

Sequences of proteins named here, by UniProt entry; tags and fusion partners are left off. Residues count along the entry.
UniProt Q02223, residues 2-54: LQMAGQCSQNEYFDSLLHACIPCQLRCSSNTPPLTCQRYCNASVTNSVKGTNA

The values below come from patent publication US20140178329A1.

T1: human TACI-Fc (human) (UniProt O14836)
T1 sequence (looked up): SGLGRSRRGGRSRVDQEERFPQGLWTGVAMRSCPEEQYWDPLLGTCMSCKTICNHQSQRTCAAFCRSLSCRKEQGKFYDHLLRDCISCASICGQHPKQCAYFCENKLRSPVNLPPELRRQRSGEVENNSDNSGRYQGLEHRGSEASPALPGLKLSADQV

B1: R233A (ligand)
soluble APRIL monomer: AVLTQKQKKQHSVLHLVPINATSKDDSDVTEVMWQPALRRGRGLQAQGYGVRIQDAGVYLLYSQVLFQDVTFTMGQVVSREGQGRQETLFRCIRSMPSHPDRAYNSCYSAGVFHLHQGDILSVIIPRAAAKLNLSPHGTFLGFVKL
B2: T175F (ligand)
soluble APRIL monomer: B1 soluble APRIL monomer with T71F, A129R
B3: R233E (ligand)
soluble APRIL monomer: B1 soluble APRIL monomer with A129E
B4: T175Y (ligand)
soluble APRIL monomer: B1 soluble APRIL monomer with T71Y, A129R
B5: D132A (ligand)
soluble APRIL monomer: B1 soluble APRIL monomer with D28A, A129R
B6: T175L (ligand)
soluble APRIL monomer: B1 soluble APRIL monomer with T71L, A129R

In the first experiment the target is human BCMA-Fc (human) (UniProt Q02223). As to the kind of experiment: receptor-binding ELISA, human BCMA-Fc coated, doubling dilutions of conditioned medium from undiluted, anti-FLAG-HRP; APRIL amounts not matched [BCMA-Fc coating].
In the case of B1, the binding entry was “binds”.

As to B2, the binding entry was “binds”.

Take B3: the binding result was “binds”.

On to B4, for which the binding result was “binds”.

Take B5: the binding entry is on record as “binds”.

Consider B6, for which the binding result is “binds”.

The target of the next experiment is T1, human TACI-Fc (human). As to the kind of experiment: receptor-binding ELISA, human TACI-Fc coated, doubling dilutions of conditioned medium from undiluted, anti-FLAG-HRP; APRIL amounts not matched [TACI-Fc coating].
As to B1, the binding entry is recorded as “binds”.

As to B3, the binding result is on record as “binds”.

As for B5, the binding entry is “binds”.
